Values of other authors, collected in patent US20120093928A1, “ORAL METAXALONE COMPOSITIONS” (RANBAXY LABORATORIES LIMITED, priority 2007, published 2012).

Conditions: oral, single 800 mg dosage

## Cc1cc(C)cc(OCC2CNC(=O)O2)c1 (centres unmarked) [metaxalone, 5-[(3,5-dimethyphenoxy)methyl]-2-oxazolidinone]
  duration of action: 4 to 6 h
  onset of action: ≤ 1 h
